Test results taken from the supplement of paper PMC12889115.
This is one part of the list. Values are raw readings; no control value is given beside them.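 First-pass screen: polymyxin B was added at a level that permeabilizes the Salmonella outer membrane while sparing the inner membrane. DMSO wells, with and without polymyxin B, defined maximum growth. Because plates differed from one another, each plate's data were ranked separately and the compounds with the lowest OD600 were carried forward as hits.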

System: Salmonella enterica serovar Typhimurium SL1344
Assay: bacterial growth OD600 after 18 h with compound and polymyxin B; higher = more bacterial growth (less inhibition)
Details: 50 µM, Mueller-Hinton broth

SMILES | bacterial growth OD600 (polymyxin B 0.75 µg/mL) | bacterial growth OD600 (polymyxin B 1 µg/mL)
CC1(C)CC(NC(=O)c2coc(COc3cccc4cccnc34)n2)CCO1 (centres undefined) | 0.859 | –
COCCCN1C(=O)CC(CC(=O)N2CCCCC2c2cccnc2)(c2ccccc2Cl)C1=O (centres undefined) | 0.515 | –
Cc1cccc(N2CCC(C3CCN(Cc4cccnc4)CC3)C2)n1 (centres undefined) | 0.773 | –
O=C(Nc1cccc(N2CCC(NCc3cccc(OC(F)(F)F)c3)CC2)c1)C1CC1 | 0.823 | –
COc1ccc(CC(=O)NCC2CCCN(C(=O)c3ccc4c(c3)OCO4)C2)cc1 (centres undefined) | – | 0.935
Cc1c(C(=O)N(C)Cc2cccc3ncccc23)sc2ncnc(NC[C@H]3C[C@@H]4C=C[C@H]3C4)c12 | 0.559 | –
COC(=O)C(CCSC)NC(=O)c1ccc(OC2CCN(C(=O)C3CC3)CC2)cc1 (centres undefined) | – | 1.15
COc1ccc2c(c1)OC(C)CN(CCNC(=O)c1cc(Cl)ccc1F)C2 (centres undefined) | 0.771 | –
C(=C\c1ccccc1)/CN1CCCC(Nc2ccccc2)C1 (centres undefined) | – | 1.18
COc1ccc(CNC(=O)CCC2CCCN(Cc3nccn3C)C2)c(OC)c1 (centres undefined) | – | 0.997
COCCN1C(=O)CC(CC(=O)N2CCCC(OCc3ccccc3)C2)(c2cccc(OC)c2)C1=O (centres undefined) | 0.602 | –
CC(=O)N1CCC(C(=O)N2CCc3[nH]nc(-c4ccc(Cl)cc4)c3C2)CC1 | 0.867 | –
Cc1c(Cl)cccc1NC(=O)N1CCCC(CNC(=O)c2cccnc2)C1 (centres undefined) | 0.762 | –
COc1ccccc1CN1CCC(C(=O)Nc2cccc(-c3cscn3)c2)CC1 | – | 0.939
COc1cccc(CN2CCN(C(=O)CCC3(Cc4ccc(C)cc4)CCC(=O)N3)CC2=O)c1 (centres undefined) | 0.963 | –
COc1cccc(CC(C2CCN(C(=O)CCc3ccccc3)CC2)N(C)C(=O)c2ccsc2)c1 (centres undefined) | 0.591 | –
CCC(=O)N[C@@H]1c2ccccc2C2(CCN(C(=O)c3sccc3C)CC2)[C@H]1OCc1cccnc1 | 0.72 | –
CC(=O)Nc1ccnn1C1CCN(Cc2ccc(-c3ccccc3)cc2)CC1 | 0.007 | –
O=C(CC(F)(F)F)NC1CC(=O)N(Cc2ccccc2C(F)(F)F)C1 (centres undefined) | – | 0.791

Reprinted at random: 2 compounds from above, in no set order.
SMILES | bacterial growth OD600 (polymyxin B 0.75 µg/mL) | bacterial growth OD600 (polymyxin B 1 µg/mL)
COc1cccc(CC(C2CCN(C(=O)CCc3ccccc3)CC2)N(C)C(=O)c2ccsc2)c1 (centres undefined) | 0.591 | –
CC(=O)N1CCC(C(=O)N2CCc3[nH]nc(-c4ccc(Cl)cc4)c3C2)CC1 | 0.867 | –
